Experimental data published in paper PMC7309457.

Target: Cyclin-dependent kinase 11 (human (endogenous in HeLa))
Assay: co-IP; anti-CDK11 (normal rabbit IgG as control) on protein A/G magnetic beads, 2 mg HeLa lysate protein, 1 h at 4 °C; lysis buffer 50 mM Tris-HCl, 150 mM NaCl, 0.5% Triton X-100, 2 mM EDTA pH 8.0; four washes; immunoblot

- binding: binds
B1: SIRT2 (protein, UniProt Q8IXJ6 1-389)
chain: MAEPDPSHPLETQAGKVQEAQDSDSDSEGGAAGGEADMDFLRNLFSQTLSLGSQKERLLDELTLEGVARYMQSERCRRVICLVGAGISTSAGIPDFRSPSTGLYDNLEKYHLPYPEAIFEISYFKKHPEPFFALAKELYPGQFKPTICHYFMRLLKDKGLLLRCYTQNIDTLERIAGLEQEDLVEAHGTFYTSHCVSASCRHEYPLSWMKEKIFSEVTPKCEDCQSLVKPDIVFFGESLPARFFSCMQSDFLKVDLLLVMGTSLQVQPFASLISKAPLSTPRLLINKEKAGQSDPFLGMIMGLGGGMDFDSKKAYRDVAWLGECDQGCLALAELLGWKKELEDLVRREHASIDAQSGAGVPNPSTSASPKKSPPPAKDEARTTEREKPQ

These are yes or no findings as the source states them, for the method shown. In cells and extracts the contact can be indirect. Binding can be weak; no strength is given.
